Data taken from PMC9455066.
No constants are given. Whether binding was seen depends on the method and setting. Binding seen in cells or lysates may run through a third protein. Some results given as binding are weak or reduced against the parent protein; the word gives no strength.

Chains of the proteins cited; added tags and fusions are not shown.
UniProt P01106: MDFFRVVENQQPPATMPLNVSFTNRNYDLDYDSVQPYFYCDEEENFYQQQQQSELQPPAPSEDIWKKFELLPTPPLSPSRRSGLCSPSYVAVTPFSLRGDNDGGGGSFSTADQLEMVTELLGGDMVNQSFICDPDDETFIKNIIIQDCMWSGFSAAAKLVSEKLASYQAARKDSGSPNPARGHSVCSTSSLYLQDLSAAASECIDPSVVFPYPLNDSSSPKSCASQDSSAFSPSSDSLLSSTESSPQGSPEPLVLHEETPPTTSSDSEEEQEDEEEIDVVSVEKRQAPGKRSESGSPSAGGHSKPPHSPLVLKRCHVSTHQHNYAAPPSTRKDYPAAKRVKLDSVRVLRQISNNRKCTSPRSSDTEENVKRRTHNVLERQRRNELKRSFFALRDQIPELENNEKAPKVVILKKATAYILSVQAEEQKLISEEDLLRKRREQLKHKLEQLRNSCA

Target: T1, ubiquitin-like, containing PHD and RING finger domain, 1 (UHRF1) (human (endogenous in MOLT4 and REH)) (UniProt Q96T88)
T1 sequence: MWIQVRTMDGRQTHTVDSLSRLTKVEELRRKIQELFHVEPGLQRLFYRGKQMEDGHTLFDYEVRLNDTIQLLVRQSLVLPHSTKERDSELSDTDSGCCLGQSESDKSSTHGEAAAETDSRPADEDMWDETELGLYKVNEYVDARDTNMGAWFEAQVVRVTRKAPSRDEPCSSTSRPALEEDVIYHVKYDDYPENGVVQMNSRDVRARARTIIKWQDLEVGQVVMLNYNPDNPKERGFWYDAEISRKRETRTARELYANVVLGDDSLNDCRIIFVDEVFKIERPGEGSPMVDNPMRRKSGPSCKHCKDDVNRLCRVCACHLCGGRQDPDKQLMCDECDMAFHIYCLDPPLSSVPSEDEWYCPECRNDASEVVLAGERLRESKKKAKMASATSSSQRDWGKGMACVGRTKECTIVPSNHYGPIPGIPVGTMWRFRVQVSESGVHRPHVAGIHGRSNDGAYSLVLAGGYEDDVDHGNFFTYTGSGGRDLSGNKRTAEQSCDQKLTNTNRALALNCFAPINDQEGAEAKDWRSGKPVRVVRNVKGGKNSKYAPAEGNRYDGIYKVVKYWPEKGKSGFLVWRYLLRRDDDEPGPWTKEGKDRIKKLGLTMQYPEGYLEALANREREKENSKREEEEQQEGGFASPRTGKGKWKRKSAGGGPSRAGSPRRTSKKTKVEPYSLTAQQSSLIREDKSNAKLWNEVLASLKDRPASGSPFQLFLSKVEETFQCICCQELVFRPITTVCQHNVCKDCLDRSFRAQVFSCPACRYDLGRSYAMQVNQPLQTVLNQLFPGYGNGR
Experiment: co-IP; endogenous proteins; MOLT4 and REH cells lysed in IP Lysis buffer with protease inhibitors at 4 °C; 2 µg anti-UHRF1, anti-MYC or rabbit IgG with Dynabeads protein G overnight at 4 °C; washed three times with PBS; Western blot with anti-UHRF1 and anti-c-Myc

## c-Myc (from UniProt P01106 1-454)
  binding: binds
